Measurements taken from article doi:10.1101/2022.02.18.481055.

Amino acid sequences for entries named in this document (tags omitted). A change or cut given only in a name is not applied to a line headed by its entry.
UniProt Q15286, whole entry: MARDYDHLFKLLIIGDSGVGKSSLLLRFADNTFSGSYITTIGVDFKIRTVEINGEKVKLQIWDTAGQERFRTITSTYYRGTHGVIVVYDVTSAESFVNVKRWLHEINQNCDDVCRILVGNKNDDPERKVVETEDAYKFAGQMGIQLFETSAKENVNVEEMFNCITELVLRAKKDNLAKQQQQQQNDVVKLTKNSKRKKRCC
UniProt Q9NRW1, whole entry, stated change not applied: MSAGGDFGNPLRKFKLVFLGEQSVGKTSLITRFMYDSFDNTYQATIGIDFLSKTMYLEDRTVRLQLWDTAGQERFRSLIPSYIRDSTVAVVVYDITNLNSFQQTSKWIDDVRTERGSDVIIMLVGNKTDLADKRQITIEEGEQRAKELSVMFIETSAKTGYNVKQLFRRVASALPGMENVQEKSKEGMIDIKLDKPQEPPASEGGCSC
UniProt P20338, whole entry, stated change not applied: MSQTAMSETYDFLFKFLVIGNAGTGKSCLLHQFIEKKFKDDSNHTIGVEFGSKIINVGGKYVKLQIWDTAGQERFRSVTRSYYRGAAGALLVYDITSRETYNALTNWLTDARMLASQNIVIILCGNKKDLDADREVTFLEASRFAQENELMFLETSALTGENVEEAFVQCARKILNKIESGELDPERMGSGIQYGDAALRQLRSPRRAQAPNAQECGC
UniProt P62820, whole entry, stated change not applied: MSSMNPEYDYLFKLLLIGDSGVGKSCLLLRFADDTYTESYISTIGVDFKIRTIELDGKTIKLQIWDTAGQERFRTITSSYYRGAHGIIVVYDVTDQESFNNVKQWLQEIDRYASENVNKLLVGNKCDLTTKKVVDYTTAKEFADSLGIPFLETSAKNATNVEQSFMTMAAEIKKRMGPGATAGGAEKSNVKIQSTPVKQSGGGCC

What was measured:
Assay in all cases: co-IP
EGFP-Rab35 (human) = EGFP-Rab35 (human) (UniProt Q15286)
EGFP-Rab6B (human) = EGFP-Rab6B (human) (UniProt Q9NRW1)
EGFP-Rab4A (human) = EGFP-Rab4A (human) (UniProt P20338)
EGFP-Rab1A (human) = EGFP-Rab1A (human) (UniProt P62820)
[1] = target: CpoS(Cm)-FLAG (Chlamydia muridarum Nigg) (UniProt Q9PKG5)
[2] = target: CpoS(A)-FLAG (Chlamydia trachomatis A/HAR-13)
[3] = target: CpoS(L2)-FLAG (Chlamydia trachomatis L2/434/Bu)

| Substance | binding (EGFP-Rab35 (human)) | binding (EGFP-Rab6B (human)) | binding (EGFP-Rab4A (human)) | binding (EGFP-Rab1A (human)) | binding [1] | binding [2] | binding [3] |
| --- | --- | --- | --- | --- | --- | --- | --- |
| CpoS(L2)-FLAG (from UniProt A0A0H3MBY4) | binds | binds | binds | binds | – | – | – |
| EGFP-Rab1A (from UniProt P62820 1-205) | – | – | – | – | binds | binds | binds |
| EGFP-Rab4A (from UniProt P20338 1-218) | – | – | – | – | binds | binds | binds |
| EGFP-Rab5A (from UniProt P20339 1-215) | – | – | – | – | – | – | no binding |
| EGFP-Rab35 (from UniProt Q15286 1-201) | – | – | – | – | binds | binds | binds |

No constants are given. Whether binding was seen depends on the method and setting. Binding seen in cells or lysates may run through a third protein. Binding can be weak; no strength is given.
